## Cell number after 72 h of treatment

Data from the primary screen of doi:10.1371/journal.pone.0140310, rounded.

Drugs:
FK866 (0.01 µM): O=C(/C=C/c1cccnc1)NCCCCC1CCN(C(=O)c2ccccc2)CC1
YM155 (0.0004 µM): COCC[n+]1c2c(n(Cc3cnccn3)c1C)C(=O)c1ccccc1C2=O
pazopanib (0.4 µM): Cc1ccc(Nc2nccc(N(C)c3ccc4c(C)n(C)nc4c3)n2)cc1S(N)(=O)=O
perifosine (0.4 µM): CCCCCCCCCCCCCCCCCCOP(=O)([O-])OC1CC[N+](C)(C)CC1
temozolomide (2 µM): Cn1nnc2c(C(N)=O)ncn2c1=O
enzastaurin (0.8 µM): Cn1cc(C2=C(c3cn(C4CCN(Cc5ccccn5)CC4)c4ccccc34)C(=O)NC2=O)c2ccccc21
ENMD-2076 (0.04 µM): Cc1cc(Nc2cc(N3CCN(C)CC3)nc(/C=C/c3ccccc3)n2)n[nH]1
ruxolitinib (1 µM): N#CC[C@H](C1CCCC1)n1cc(-c2ncnc3[nH]ccc23)cn1
lestaurtinib (0.004 µM): C[C@]12O[C@H](C[C@]1(O)CO)n1c3ccccc3c3c4c(c5c6ccccc6n2c5c31)CNC4=O
L-779450 (0.2 µM): Oc1cc(-c2nc(-c3ccccc3)[nH]c2-c2ccncc2)ccc1Cl
dasatinib (0.004 µM): Cc1nc(Nc2ncc(C(=O)Nc3c(C)cccc3Cl)s2)cc(N2CCN(CCO)CC2)n1
gemcitabine (0.0004 µM): Nc1ccn([C@@H]2O[C@H](CO)[C@@H](O)C2(F)F)c(=O)n1
sorafenib (0.4 µM): CNC(=O)c1cc(Oc2ccc(NC(=O)Nc3ccc(Cl)c(C(F)(F)F)c3)cc2)ccn1

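Human melanoma cells were exposed to two drugs together for 72 h in 1,536-well plates and read by automated microscopy after fixing and staining. Values are the number of DAPI-stained nuclei as a percentage of the DMSO control: 100 is no effect, lower means fewer cells. Concentrations were fixed for each drug; these are the lower of two levels, a fifth of the higher. These are primary screening values without error estimates.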 This is part of the screen, not chosen by result. A dash means that no value is listed here.

Pair	COLO 800	G-361	LB2518-MEL	IPC-298	MEL-HO	C32	A101D	COLO 792	A375	A2058	COLO 829	IST-MEL1	501mel	LOX IMVI
pazopanib and L-779450	68.1	79.7	97.9	81.0	85.0	88.7	95.0	109	-	97.6	94.4	108	77.0	112
dasatinib and ruxolitinib	151	89.0	98.7	100	97.2	94.3	91.8	73.3	91.6	63.6	107	92.8	-	70.3
L-779450 and sorafenib	109	87.0	106	94.2	86.5	84.8	95.3	106	-	84.8	135	95.8	61.5	125
L-779450 and enzastaurin	122	98.1	99.0	94.2	90.4	91.6	101	83.7	-	115	148	100	60.6	121
ENMD-2076 and L-779450	76.2	92.5	92.9	84.9	81.6	76.0	92.0	105	-	93.1	107	98.5	78.0	145
ENMD-2076 and enzastaurin	78.0	81.9	94.6	98.0	102	108	104	98.6	95.6	93.5	101	107	-	94.2
temozolomide and sorafenib	72.9	99.2	102	95.5	90.0	99.5	107	97.4	84.4	89.5	88.1	102	-	80.8
temozolomide and perifosine	102	99.8	107	95.7	97.2	100	104	102	97.0	83.6	92.9	96.8	-	52.4
ruxolitinib and lestaurtinib	116	91.3	126	94.9	92.9	99.9	104	107	86.8	84.4	68.8	96.6	-	73.3
gemcitabine and YM155	76.7	60.5	92.6	75.6	75.3	84.9	92.9	82.9	65.4	60.7	91.3	55.6	-	51.7
ruxolitinib and sorafenib	108	96.0	128	91.2	88.2	108	122	115	109	96.7	94.7	99.5	-	91.2
sorafenib and gemcitabine	147	102	-	89.2	94.3	95.2	96.1	128	89.0	109	99.5	74.1	-	75.6
sorafenib and dasatinib	145	92.2	113	86.2	103	89.3	105	82.0	81.6	86.2	91.3	87.3	-	49.6
pazopanib and dasatinib	117	113	86.9	81.5	80.9	102	96.4	73.9	96.2	84.8	76.1	93.3	-	102
lestaurtinib and dasatinib	95.3	91.4	-	104	94.2	108	92.1	58.5	89.8	87.8	92.2	108	-	87.7
pazopanib and FK866	29.3	5.5	81.5	35.0	43.8	100	102	40.3	110	105	71.4	60.4	-	73.4
L-779450 and dasatinib	104	83.0	73.1	83.3	82.3	83.0	101	73.2	63.0	90.7	95.4	82.2	70.8	69.7
perifosine and gemcitabine	89.0	92.5	89.2	97.0	95.8	109	99.5	105	47.8	77.5	87.0	74.7	-	108
lestaurtinib and temozolomide	115	108	-	89.7	111	112	84.9	92.0	85.1	94.1	109	102	-	88.7
gemcitabine and ruxolitinib	89.4	80.9	113	90.8	84.5	102	113	105	107	87.2	93.2	76.1	-	76.0
FK866 and YM155	35.8	6.8	81.2	36.6	40.6	92.0	92.6	41.4	102	91.6	74.8	61.1	-	58.0
FK866 and lestaurtinib	29.6	5.0	89.1	41.1	41.4	75.9	100	45.2	102	107	51.0	59.0	-	43.2
FK866 and gemcitabine	35.1	6.9	86.2	29.7	45.0	103	109	35.5	106	102	67.4	57.5	-	141
YM155 and sorafenib	144	106	-	87.1	104	107	111	122	99.9	83.2	95.4	107	-	143
YM155 and enzastaurin	79.8	103	69.4	82.0	106	96.9	78.7	81.3	62.1	69.8	62.5	88.9	-	86.9
pazopanib and ruxolitinib	142	84.9	115	81.1	81.6	95.7	98.1	103	103	84.6	123	102	-	115
FK866 and sorafenib	61.3	8.0	93.6	40.3	52.9	95.7	103	54.8	104	98.3	77.6	59.2	-	102
YM155 and L-779450	38.8	76.6	74.6	77.2	68.7	86.9	98.6	96.2	90.1	57.2	104	88.8	58.7	111
YM155 and perifosine	92.5	103	81.2	100	102	89.3	133	103	97.1	75.6	94.7	80.2	-	114
perifosine and lestaurtinib	90.9	111	92.6	95.8	108	95.2	87.1	87.8	86.6	103	101	111	-	128
sorafenib and ENMD-2076	83.6	88.6	91.2	89.3	100	0.4	109	105	97.0	84.0	95.5	101	-	106

For reference, 4 entries once more:

| Pair | COLO 800 | G-361 | LB2518-MEL | IPC-298 | MEL-HO | C32 | A101D | COLO 792 | A375 | A2058 | COLO 829 | IST-MEL1 | 501mel | LOX IMVI |
|---|---|---|---|---|---|---|---|---|---|---|---|---|---|---|
| pazopanib and dasatinib | 117 | 113 | 86.9 | 81.5 | 80.9 | 102 | 96.4 | 73.9 | 96.2 | 84.8 | 76.1 | 93.3 | - | 102 |
| gemcitabine and ruxolitinib | 89.4 | 80.9 | 113 | 90.8 | 84.5 | 102 | 113 | 105 | 107 | 87.2 | 93.2 | 76.1 | - | 76.0 |
| pazopanib and L-779450 | 68.1 | 79.7 | 97.9 | 81.0 | 85.0 | 88.7 | 95.0 | 109 | - | 97.6 | 94.4 | 108 | 77.0 | 112 |
| sorafenib and dasatinib | 145 | 92.2 | 113 | 86.2 | 103 | 89.3 | 105 | 82.0 | 81.6 | 86.2 | 91.3 | 87.3 | - | 49.6 |